Results are given in words; binding and its absence hold for the method and conditions named. Some results given as binding are weak or reduced against the parent protein; the word gives no strength. Tags and fused reporters may be left off the sequences shown.
T1: GFP::PKC-3 (C. elegans) (UniProt Q19266)
T1 sequence: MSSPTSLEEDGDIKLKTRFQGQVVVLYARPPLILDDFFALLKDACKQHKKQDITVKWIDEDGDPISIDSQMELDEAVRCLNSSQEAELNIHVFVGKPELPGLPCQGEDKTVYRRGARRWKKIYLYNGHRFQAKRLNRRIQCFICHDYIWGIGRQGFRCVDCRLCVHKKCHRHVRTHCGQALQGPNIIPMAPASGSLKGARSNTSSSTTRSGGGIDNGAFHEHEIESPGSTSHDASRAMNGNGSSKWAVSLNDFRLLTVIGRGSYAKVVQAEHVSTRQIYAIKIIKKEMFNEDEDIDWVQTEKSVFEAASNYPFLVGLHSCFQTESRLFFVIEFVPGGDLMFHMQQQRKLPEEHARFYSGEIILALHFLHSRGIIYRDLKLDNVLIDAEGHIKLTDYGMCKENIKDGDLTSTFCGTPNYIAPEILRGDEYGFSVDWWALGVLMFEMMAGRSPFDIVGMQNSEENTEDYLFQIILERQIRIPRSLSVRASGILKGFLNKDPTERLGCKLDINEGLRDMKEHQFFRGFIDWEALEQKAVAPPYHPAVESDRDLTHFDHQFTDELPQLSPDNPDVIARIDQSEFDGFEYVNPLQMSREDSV

T2: GFP::AID::PKC-3 (C. elegans) (UniProt Q19266)
T2 sequence: T1 sequence

T3: GFP::AID::PAR-3 (C. elegans) (UniProt Q17353)
T3 sequence: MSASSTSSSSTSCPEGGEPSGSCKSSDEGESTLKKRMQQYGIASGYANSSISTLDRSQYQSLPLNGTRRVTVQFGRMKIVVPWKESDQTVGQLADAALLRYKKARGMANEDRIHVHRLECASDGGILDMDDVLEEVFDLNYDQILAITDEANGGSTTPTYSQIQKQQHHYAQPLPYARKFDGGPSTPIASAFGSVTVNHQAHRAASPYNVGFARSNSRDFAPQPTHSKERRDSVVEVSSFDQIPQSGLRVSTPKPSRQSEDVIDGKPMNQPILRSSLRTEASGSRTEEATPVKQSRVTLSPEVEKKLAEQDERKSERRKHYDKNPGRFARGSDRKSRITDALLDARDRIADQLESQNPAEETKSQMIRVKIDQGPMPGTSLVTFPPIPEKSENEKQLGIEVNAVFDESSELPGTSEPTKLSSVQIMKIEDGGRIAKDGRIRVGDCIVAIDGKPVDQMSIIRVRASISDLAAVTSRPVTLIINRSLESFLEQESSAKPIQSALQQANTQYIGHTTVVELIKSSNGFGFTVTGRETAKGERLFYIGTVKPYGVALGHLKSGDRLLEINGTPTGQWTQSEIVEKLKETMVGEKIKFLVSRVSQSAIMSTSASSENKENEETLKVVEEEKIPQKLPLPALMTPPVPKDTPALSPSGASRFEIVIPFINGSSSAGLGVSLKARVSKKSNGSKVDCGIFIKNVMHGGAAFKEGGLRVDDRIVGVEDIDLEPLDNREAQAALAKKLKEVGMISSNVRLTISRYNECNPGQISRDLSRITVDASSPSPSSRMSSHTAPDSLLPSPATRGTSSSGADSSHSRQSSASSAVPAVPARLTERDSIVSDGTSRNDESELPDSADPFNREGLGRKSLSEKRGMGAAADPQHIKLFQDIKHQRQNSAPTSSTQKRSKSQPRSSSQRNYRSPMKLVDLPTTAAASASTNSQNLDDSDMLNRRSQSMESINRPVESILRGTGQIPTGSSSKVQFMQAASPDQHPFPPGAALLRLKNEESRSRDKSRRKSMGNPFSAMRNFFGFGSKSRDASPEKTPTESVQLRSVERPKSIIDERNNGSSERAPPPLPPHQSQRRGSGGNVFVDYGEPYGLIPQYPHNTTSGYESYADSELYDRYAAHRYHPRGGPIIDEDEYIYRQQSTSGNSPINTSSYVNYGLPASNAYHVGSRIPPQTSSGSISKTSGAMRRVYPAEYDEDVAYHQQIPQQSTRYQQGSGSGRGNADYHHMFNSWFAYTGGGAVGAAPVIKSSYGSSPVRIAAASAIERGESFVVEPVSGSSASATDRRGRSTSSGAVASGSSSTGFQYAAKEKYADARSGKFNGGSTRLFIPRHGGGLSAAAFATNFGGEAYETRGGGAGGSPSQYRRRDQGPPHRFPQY

T4: PAR-6::mCherry (C. elegans) (UniProt Q9NAN2)
T4 sequence: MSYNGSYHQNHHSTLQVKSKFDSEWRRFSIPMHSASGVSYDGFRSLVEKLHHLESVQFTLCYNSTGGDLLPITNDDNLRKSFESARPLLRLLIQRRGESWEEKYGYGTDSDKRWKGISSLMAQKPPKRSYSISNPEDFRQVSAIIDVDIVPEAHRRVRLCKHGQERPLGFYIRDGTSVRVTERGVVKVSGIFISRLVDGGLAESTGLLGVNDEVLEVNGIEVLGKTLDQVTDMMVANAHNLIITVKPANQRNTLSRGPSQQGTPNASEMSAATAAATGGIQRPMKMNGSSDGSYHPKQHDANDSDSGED

B1: mKate2::PAR-6 (protein, UniProt Q9NAN2 1-309)
chain: T4 sequence
B2: PAR-6::mCherry (protein, UniProt Q9NAN2 1-309)
chain: T4 sequence
B3: GFP::AID::PKC-3 (protein, UniProt Q19266 1-597)
chain: T1 sequence
B4: DLG-1::mCherry (protein, UniProt G5ECY0 1-967)
chain: MSHESSEKAHKAIENVEDYCQTLTRHGNEELRTNLERVITTFKSNLMHSLLDIHDLYEQTLLSERKSDAEKNMEVRRVIERLEGGPHSYNSRPAATTSTSNYNLSSTTPLISDLRDRGGFSYLNGGGLGNGLGNGLGNGLLSSPYNSSSTHYLHERQRQTSHDGTWRETTTRTVDTPSGLERRVVEHTGVIDDHGRKWELENIVLEKGHTGLGFSITGGMDQPTEDGDTSIYVTNIIEGGAALADGRMRKNDIITAVNNTNCENVKHEVAVNALKSSGNVVSLSLKRRKDEAFLPIGGNFGGSTSYLRSGVTPSVSAGNLQHAIHSPSAPIHPPPPPPVHHGSLSQLSVGQYRSTRPNTSVIDLVKGARGLGFSIAGGQGNEHVKGDTDIYVTKIIEEGAAELDGRLRVGDKILEVDHHSLINTTHENAVNVLKNTGNRVRLLIQQGTGAIFNDSASQQFMPTTPILRPSSVQDYNRSQMGSQSHLSYGGPLNTSYSSQAPIAIPLEPRPVQLVKGQNGLGFNIVGGEDNEPIYISFVLPGGVADLSGNVKTGDVLLEVNGVVLRNATHKEAAEALRNAGNPVYLTLQYRPQEYQIFESKIEKLRNDVIAQSRMGTLSRKSEYVRALFDYDPSRENSVAPHRSMGFNYGDILHIINSSDDEWWTARKVHENGEETAEGVIPSKKRVEKRERLRRKQVNFNSGSQSLGRNSSTTGLENRRGSRSQLSFSRKFPFVKSTDRLNDLNEESSNVAEEPVWSYQAVEQQAINYVRPVIILGALKDRINDELVNRDPSKFSSCVPHTSRPPREGEVNGRDYYFVNKHNMEEDVKNNLFIEAGQFQNNLYGTSIQSVRDVANQGRHCILDVSGNAIRRLQSNANIQPISIFIKPSSAQQILELDSQLATNRQDDRAMSGEEAQAQYSRCHRIEQTFGDLFTQEISNVHSANDVLSKVYSIISRESQTPIWVPRH

What was measured:
Assay in all cases: CeLINC
[1] = molecular target: T1, GFP::PKC-3 (C. elegans)
[2] = molecular target: T2, GFP::AID::PKC-3 (C. elegans)
[3] = molecular target: T3, GFP::AID::PAR-3 (C. elegans)
[4] = molecular target: T4, PAR-6::mCherry (C. elegans)

Molecule | binding [1] | further results
mKate2::PAR-6(ΔPB1) (from UniProt Q9NAN2 1-309) | no binding | –
B1 | binds | –
B2 | – | binding [2]: binds; binding [3]: binds
B3 | – | binding [4]: binds
B4 | no binding | –

From paper doi:10.1101/2021.06.01.446599
